# Counter-ions that a name gives are not always drawn. The list shows a part of the results. Repeats in this data set agree poorly, so a single value says little.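 Human kidney-derived cells stably carry a construct in which eight TEAD-binding elements drive luciferase, measured by luminescence in a drug-repurposing library screen. A hit is any compound whose signal exceeds the plate mean by more than five robust Z scores.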
# Tested on: HEK293A TEAD-LUC reporter
# Assay: TEAD-luciferase reporter activity (YAP activation), robust Z score vs plate; higher = stronger YAP/TEAD activation
# Settings: 24 h
SMILES,TEAD-luciferase reporter activity (compound concentration: 200 nM),TEAD-luciferase reporter activity (compound concentration: 2 uM),TEAD-luciferase reporter activity (compound concentration: 10 uM)
Cc1[nH]c(NC(=O)c2cc(CNC(=O)C(C)C)cnc2C(F)F)nc1-c1ccc(C(F)(F)F)cc1,inactive: -1.59,inactive: -1.13,inactive: 3.31
O=c1c(-n2ccnn2)c[nH]n1-c1cc(N2CCOCC2)ncn1 [molidustat],inactive: 1.14,inactive: 0.648,inactive: 2.85
CC1(C)C=C(c2ccccn2)c2cc(C#N)ccc2O1,inactive: 2.31,inactive: -1.54,inactive: -1.27
CC1(C)C(/C=C/C=C/C=C/C=C2/N(CCCCS(=O)(=O)[O-])c3ccc4ccccc4c3C2(C)C)=[N+](CCCCS(=O)(=O)[O-])c2ccc3ccccc3c21 [indocyanin green],–,inactive: 1.61,–
"CC1(C)C(/C=C/C=C/C=C/C=C2/N(CCCCS(=O)(=O)[O-])c3ccc4ccccc4c3C2(C)C)=[N+](CCCCS(=O)(=O)[O-])c2ccc3ccccc3c21 [indocyanin green, Daiichi]",inactive: 0.421,–,inactive: 0.536
O=C(C1CC1)N1CCCN(c2nc3ncccc3o2)CC1,inactive: -2.37,–,inactive: -0.18
CC(C)(N)c1ccc(-c2nc(Nc3ccc(CCN4CCOCC4)cc3)ncc2C#N)cc1,inactive: -0.0341,inactive: -1.32,inactive: -0.567
CC(C)Oc1ccc(C(=O)NS(=O)(=O)c2ccc(N)cc2)cc1,inactive: -0.412,inactive: -2.19,inactive: -0.721
CCc1c(C)[nH]c2c1C(=O)C(CN(C)C)CC2 (stereo unspecified),inactive: -1.69,inactive: -0.656,inactive: 1.09
CN(CCC(Oc1ccc(-c2ccccc2)cc1)c1ccc(F)cc1)CC(=O)O (stereo unspecified),inactive: -0.123,inactive: -1.79,inactive: -1.58
CC(C)=CCC/C(C)=C/CC/C(C)=C/CCC1(C)CCc2cc(O)ccc2O1 (stereo unspecified) [Tocotrienol],inactive: 0.157,inactive: -0.607,inactive: 1.18
CC(=O)N1CCC(NC(=O)c2ccc(F)cc2)CC1,inactive: -0.0605,inactive: -1.4,inactive: 1.27
CCCCCCCCCCCCNCC(O)CCCCCCCCCn1c(=O)c2c(ncn2C)n(C)c1=O (stereo unspecified),inactive: -0.339,inactive: -0.317,inactive: -0.969
CN(C)CCOC1=Cc2ccccc2Sc2ccc(Cl)cc21 [zotepine],inactive: -1.04,inactive: -0.117,inactive: 3.35
CCOc1ccc(NC(=S)Nc2ccc(OCC)cc2)cc1,inactive: -0.141,inactive: 1.6,inactive: -1.35
O=C(O)CCCC(=O)N1Cc2ccccc2CC2(CCCN2Cc2ccccc2)C1 (stereo unspecified),inactive: 1.09,–,inactive: 2.33
CCN(CC)C(=S)SSC(=S)N(CC)CC,inactive: -1.05,–,inactive: -4.33
CCN(CC)C(=S)SSC(=S)N(CC)CC [Disulfiram],–,inactive: -0.124,–

# A section from the list above, for reference:
SMILES,TEAD-luciferase reporter activity (compound concentration: 200 nM),TEAD-luciferase reporter activity (compound concentration: 2 uM),TEAD-luciferase reporter activity (compound concentration: 10 uM)
CC(C)(N)c1ccc(-c2nc(Nc3ccc(CCN4CCOCC4)cc3)ncc2C#N)cc1,inactive: -0.0341,inactive: -1.32,inactive: -0.567
CC(C)Oc1ccc(C(=O)NS(=O)(=O)c2ccc(N)cc2)cc1,inactive: -0.412,inactive: -2.19,inactive: -0.721
CCc1c(C)[nH]c2c1C(=O)C(CN(C)C)CC2 (stereo unspecified),inactive: -1.69,inactive: -0.656,inactive: 1.09
CN(CCC(Oc1ccc(-c2ccccc2)cc1)c1ccc(F)cc1)CC(=O)O (stereo unspecified),inactive: -0.123,inactive: -1.79,inactive: -1.58
CC(C)=CCC/C(C)=C/CC/C(C)=C/CCC1(C)CCc2cc(O)ccc2O1 (stereo unspecified) [Tocotrienol],inactive: 0.157,inactive: -0.607,inactive: 1.18
CC(=O)N1CCC(NC(=O)c2ccc(F)cc2)CC1,inactive: -0.0605,inactive: -1.4,inactive: 1.27
CCCCCCCCCCCCNCC(O)CCCCCCCCCn1c(=O)c2c(ncn2C)n(C)c1=O (stereo unspecified),inactive: -0.339,inactive: -0.317,inactive: -0.969
CN(C)CCOC1=Cc2ccccc2Sc2ccc(Cl)cc21 [zotepine],inactive: -1.04,inactive: -0.117,inactive: 3.35

# (continued)

SMILES,TEAD-luciferase reporter activity (compound concentration: 200 nM),TEAD-luciferase reporter activity (compound concentration: 2 uM),TEAD-luciferase reporter activity (compound concentration: 10 uM)
O=C(O)c1ccc(NC2OC(CO)C(O)C2O)cc1 (stereo unspecified),inactive: -1.5,inactive: -0.258,inactive: -0.898
CN1CCN(C2=Nc3ccccc3Nc3ccc(OS(=O)(=O)C(F)(F)F)cc32)CC1,inactive: 1.39,inactive: 0.807,inactive: 2.67
CCOC(=O)C1=C(c2ccc(-n3c(C)nc4cnccc43)cc2)NC(C)=C(C(=O)Nc2ccccn2)C1c1ccccc1Cl (stereo unspecified),inactive: 0.0974,inactive: 0.476,inactive: 1.05
Cc1ccc(B(OC(=O)c2ncccc2O)c2cccc(Cl)c2)cc1Cl,inactive: 1.33,inactive: -0.154,inactive: 1.95
CN(C)Cc1ccc(S(=O)(=O)n2ccc(/C=C/C(=O)NO)c2)cc1 [resminostat],–,active: 16.9,–
CN(C)Cc1ccc(S(=O)(=O)n2ccc(/C=C/C(=O)NO)c2)cc1 [Resminostat (RAS2410)],inactive: 3.89,–,active: 24.5
CCCCC/C=C\C/C=C\C/C=C\CCCCCCC(=O)O,inactive: -0.8,inactive: -1.86,inactive: 0.26
CN1C(=O)c2ccccc2C(O)c2ccccc21 (stereo unspecified),inactive: -2.09,inactive: 0.797,inactive: -0.938
CN(C)[C@@H]1C(=O)C(C(=O)NCN2CCCC2)C(=O)[C@@]2(O)C(=O)C3C(=O)c4c(O)cccc4[C@@](C)(O)[C@H]3C[C@@H]12 (stereo partly specified) [Rolitetracycline],inactive: -0.0561,inactive: -0.856,inactive: -0.142
O=C(c1ccccc1)c1cccc(NS(=O)(=O)C(F)F)c1 [diflumidone],inactive: 1.01,inactive: -0.175,inactive: -1.41
O=c1[nH]c(=O)n([C@H]2C[C@H](O)[C@@H](CO)O2)cc1C(F)(F)F [trifluridine],inactive: -0.612,inactive: -1.21,inactive: -0.693
Cc1onc(-c2c(F)cccc2Cl)c1C(=O)N[C@@H]1C(=O)N2[C@@H]1SC(C)(C)[C@@H]2C(=O)O [Flucloxacillin sodium],inactive: -2.71,inactive: -0.977,inactive: 0.381
CCOC(=O)C1CCN(c2nc(N(C)S(=O)(=O)c3ccc(C#N)cc3)ccc2[N+](=O)[O-])CC1,inactive: -0.417,inactive: -0.435,inactive: -0.484
O=C([C@@H]1C[C@H](N2CCN(c3ncccn3)CC2)CN1)N1CCC(F)(F)C1 [Gosogliptin hydrochloride],inactive: 0.161,inactive: 0.345,inactive: 1.59
CCCCNc1ccc(C(=O)OCCOCCOCCOCCOCCOCCOCCOCCOCCOC)cc1 [benzonatate polacrilex],–,inactive: -0.929,–
"CCCCNc1ccc(C(=O)OCCOCCOCCOCCOCCOCCOCCOCCOCCOC)cc1 [benzonatate polacrilex, Alitair]",inactive: -1.1,–,inactive: -1.69
Cc1cccc(C)c1NC(=O)CN1CCN([C@H]2CCN(C(=O)c3cc(C(F)(F)F)cc(C(F)(F)F)c3)[C@H](Cc3ccccc3)C2)CC1,inactive: -1.2,inactive: 1.82,inactive: 0.752

# From the supplement of paper PMC10735217
